Source: article PMC5650626, “Deletion of MtrA Inhibits Cellular Development of Streptomyces coelicolor and Alters Expression of Developmental Regulatory Genes”
For some of these results: The comparison behind a weaker result is the experiment's own reference, which may not be listed here. For some of these results: Protein sequences can lack the tags named with them. For some of these results: The exact form of at least one protein or probe is not confirmed.

Tests used:
[1] = target: T1, MtrA (MtrASCO) (Streptomyces coelicolor M145) (UniProt Q9KYW8); experiment: EMSA; conditions: EMSA: 20 mM Tris-HCl pH 8.0, 2 mM EDTA, 20 mM KCl, 0.5 mM DTT, 4% Ficoll-400, 2 ug poly(dI-dC), 50 fmol probe, 20 ul, room temperature 15 min, footprinting 25 C, 30 min, recombinant protein, residues 1-229, label: biotin-11-UTP 3' end
T1 sequence (looked up): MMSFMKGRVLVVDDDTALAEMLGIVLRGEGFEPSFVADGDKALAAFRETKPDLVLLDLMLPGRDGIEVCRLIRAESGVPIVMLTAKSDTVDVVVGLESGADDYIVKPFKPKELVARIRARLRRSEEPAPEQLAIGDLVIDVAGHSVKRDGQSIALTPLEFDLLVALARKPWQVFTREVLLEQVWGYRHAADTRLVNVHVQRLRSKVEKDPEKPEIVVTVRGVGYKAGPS

[2] = target: T1, MtrA (MtrASCO) (Streptomyces coelicolor M145); experiment: DNase I footprinting; conditions: recombinant protein; residues 1-229; label: FAM; probe letters rebuilt from the primers and the genome; part of a longer molecule
[3] = severely reduced, 2.1-6.3 ug MtrA

GATCTGGTGAACACGAATCCGAGCAATTCGGACACACTGTCGATCATTCGAAGATCGAA (double strand) [whiI-aM 59bp (SCO6029-aM)]
binding result [1, 3]: binds more weakly

TGACGCAGCAGAGTAACGCTGCACAGCCTCACAGTGAGTTACCAGCCGCGCGGCCGACA (double strand) [SCO1489-M1 59bp]
binding result ([1]; markedly decreased, 2.1-6.3 ug MtrA): binds more weakly

GGACATATGGCTCCCCGGACAAGGTGTCGACGCGGCAGGCTGTGTTGTCGGCCGCGCGGCTGGTAACTCACTGTGAGGTTACGCAGCGTTACTCTGCTGCGTCAAGCCGAATGGTCCGCACCGACTCTTCCGTGGTATTCGCCATCCATTACTCCGTGCGGGTGATCGATGTGGGGCAGAGGAGTGACGGGGGAGTGTCAGGGGGGTCATCGGAGAGGTTCTGTGAGCCTGCTACCGTAGGTGGCGCATATCCGACGTCCTTTAAGGTCCGTCCCGTGAGGC (double strand) [bldD footprinting probe]
binding result [2]: binds

TGACGCAGCAGAGTAACGCTGCGTAACCTCACAACGGGTTACCAGCCGCGCGGCCGACA (double strand) [SCO1489-M2 59bp]
binding result ([1]; only slightly reduced): binds more weakly

TGACGCAGCAGAACAGCGCTGCGTAACCTCACAGTGAGTTACCAGCCGCGCGGCCGACA (double strand) [SCO1489-M3 59bp]
binding result ([1]; markedly reduced, 2.1-6.3 ug MtrA): binds more weakly

TCACAGTCGTCTTCGGCACCGAACGCGTCCGCCTTTAGAGAATGACCGTGATCTGGTGA (double strand) [whiI-bM 59bp (SCO6029-bM)]
binding result [1, 3]: binds more weakly

CACCAGCCGTCGTTCATCGTTCCGGGCAGGGGGTCCGCACGTCCGGAGGAGGTTCCGTCACTTTGTCGACACGGCCACTTTCGGCCTCGTATCGACAAAGTGCGGAACCGTTCGATCTTCGAATGATCGACAGTGTGTCCGAATTGCTCGGATTGTTACTCACCAGATCGTGATCATTCTCTAAAGGCGGACGCGTTCGGTGCCGAAGACGACTGTGACCTTGAAAGCACGGTTCGTCCCGGCTTAAACCCCATGAGCCGGCCCCGTCCCCGCACCCCAGGAGGCCTGGTGTC (double strand) [whiI footprinting probe]
binding result [2]: binds
